No constants are given. Whether binding was seen depends on the method and setting. In cells and extracts the contact can be indirect. Some results given as binding are weak or reduced against the parent protein; the word gives no strength.

Results on one molecule are retold here after patent publication US20250228895A1, “COMPOUNDS TO INHIBIT YTHDF2, T HELPER CELLS LACKING EXPRESSION OF YTHDF2, AND METHODS TO TREAT CANCER” (City of Hope, priority 2024, published 2025).

The experiment addresses p62 (mouse) (UniProt Q64337). In words: co-immunoprecipitation from B16-OVA cell lysates with anti-YTHDF2 antibody, immunoblot for p62. On the technique in general: In western blotting, separated proteins are transferred to a membrane and probed.

B1: YTHDF2 (protein, mouse, UniProt Q91YT7 2-579, looked up)
chain: SASSLLEQRPKGQGNKVQNGSVHQKDGLNDDDFEPYLSPQARPNNAYTAMSDSYLPSYYSPSIGFSYSLGEAAWSTGGDTAMPYLTSYGQLSNGEPHFLPDAMFGQPGALGSTPFLGQHGFNFFPSGIDFSAWGNNSSQGQSTQSSGYSSNYAYAPSSLGGAMIDGQSAFANETLNKAPGMNTIDQGMAALKLGSTEVASSVPKVVGSAVGSGSITSNIVASSSLPPATIAPPKPASWADIASKPAKQQPKLKTKNGIAGSSLPPPPIKHNMDIGTWDNKGPVAKAPSQALVQNIGQPTQGSPQPVGQQANNSPPVAQASVGQQTQPLPPPPPQPAQLSVQQQAAQPTRWVAPRNRGSGFGHNGVDGNGVGQSQAGSGSTPSEPHPVLEKLRSINNYNPKDFDWNLKHGRVFIIKSYSEDDIHRSIKYNIWCSTEHGNKRLDAAYRSMNGKGPVYLLFSVNGSGHFCGVAEMKSAVDYNTCAGVWSQDKWKGRFDVRWIFVKDVPNSQLRHIRLENNENKPVTNSRDTQEVPLEKAKQVLKIIASYKHTTSIFDDFSHYEKRQEEEESVKKERQGRGK
On to B1, for which the binding result is given as “binds”.
